Laboratory results published in publication PMC6375223.
No constants are given. Whether binding was seen depends on the method and setting. Binding seen in cells or lysates may run through a third protein.

By UniProt entry, the sequences of proteins in these tests, tags left out. Where a name states a change or a piece, a line headed by the entry shows the natural chain unless it says otherwise.
UniProt Q13309: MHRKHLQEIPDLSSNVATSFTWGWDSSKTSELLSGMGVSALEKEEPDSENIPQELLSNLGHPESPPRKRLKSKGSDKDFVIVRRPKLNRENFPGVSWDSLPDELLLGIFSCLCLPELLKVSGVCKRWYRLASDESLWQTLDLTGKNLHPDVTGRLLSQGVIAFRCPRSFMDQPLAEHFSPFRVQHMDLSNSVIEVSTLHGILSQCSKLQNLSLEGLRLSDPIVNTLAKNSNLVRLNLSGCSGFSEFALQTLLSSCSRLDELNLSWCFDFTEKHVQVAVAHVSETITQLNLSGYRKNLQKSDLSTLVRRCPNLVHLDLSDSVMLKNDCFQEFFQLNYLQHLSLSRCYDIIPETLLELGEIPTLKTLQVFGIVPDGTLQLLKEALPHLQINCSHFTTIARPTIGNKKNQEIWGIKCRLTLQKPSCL

Target: SKP2ΔF (UniProt Q13309)
Assay: co-IP; 293 T cells transfected with the indicated plasmids, whole-cell lysate (weak RIPA lysis buffer), immunoprecipitation and immunoblotting

B1: Programmed cell death protein 4 (PDCD4), endogenous (protein, UniProt Q53EL6 1-469)
chain: MDVENEQILNVNPADPDNLSDSLFSGDEENAGTEEIKNEINGNWISASSINEARINAKAKRRLRKNSSRDSGRGDSVSDSGSDALRSGLTVPTSPKGRLLDRRSRSGKGRGLPKKGGAGGKGVWGTPGQVYDVEEVDVKDPNYDDDQENCVYETVVLPLDERAFEKTLTPIIQEYFEHGDTNEVAEMLRDLNLGEMKSGVPVLAVSLALEGKASHREMTSKLLSDLCGTVMSTTDVEKSFDKLLKDLPELALDTPRAPQLVGQFIARAVGDGILCNTYIDSYKGTVDCVQARAALDKATVLLSMSKGGKRKDSVWGSGGGQQSVNHLVKEIDMLLKEYLLSGDISEAEHCLKELEVPHFHHELVYEAIIMVLESTGESTFKMILDLLKSLWKSSTITVDQMKRGYERIYNEIPDINLDVPHSYSVLERFVEECFQAGIISKQLRDLCPSRGRKRFVSEGDGGRLKPESY
- binding: no binding
